Results deposited as PubChem BioAssay AID1259405 (NCATS, 2018)
This is an unselected part of about 50,000 deposited reagents. Over the whole deposit, about 4,000 (8%) were called active. 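Mouse siRNA library applied to hamster cells; one well for each siRNA.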 Unmarked entries are inactive. The numbers tell different reagents against one gene apart. Not all columns of the deposit are shown.

Test: 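Silenced genes that increase secreted GFP made by CHO cells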 (primary screen)
System: Chinese hamster CHO-K1 ovary cells with stable secreted eGFP expression
Reagent: single siRNA against mouse genes, 0.8 pmol siRNA per well (2 µl of 400 nM stock)
Timing: 3 days
Read-out: 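Per-well intracellular GFP measured by laser scanning cytometry, plus viability from ATP luminescence, each relative to plate median of non-targeting control wells, in %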
Scale: GFP, % of control: higher = more GFP per well, higher productivity
Active means: 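a knock-down is called active if GFP reaches 120% or more of non-targeting control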

GFP, % of control, by gene and reagent
Or2n1c: #1 85.3; #2 55.2; #3 61.7
Zfyve19: #1 77.4; #2 83.1; #3 47.5
Tusc2: #1 153 (active); #2 84.7; #3 75.5
2610008E11Rik: #1 116; #2 46.4; #3 74.4
Mrpl34: #1 79.5; #2 154 (active); #3 54.2
Ifnb1: #1 75.7; #2 72.2
Cntnap2: #1 81.9; #2 25.3; #3 64.8
Smad7: #1 70.9; #2 91.9; #3 90.9
Dlgap2: #1 73.9; #2 129 (active)
Oasl2: #1 127 (active); #2 73.3; #3 49.2
Pcdhac2: #1 59.9; #2 54.2
B4galnt3: #1 109; #2 78.5; #3 117
Spink8: #1 59.1; #2 86.6; #3 124 (active)

Not a retest: an excerpt of the list.
GFP, % of control, by gene and reagent
Tusc2: #1 153 (active); #2 84.7; #3 75.5
2610008E11Rik: #1 116; #2 46.4; #3 74.4
Mrpl34: #1 79.5; #2 154 (active); #3 54.2
Ifnb1: #1 75.7; #2 72.2

The results go on.
GFP, % of control, by gene and reagent
Gm5941: #1 76.7; #2 75.7; #3 60.1
Dusp19: #1 77.1; #2 102; #3 100
Gvin-ps6: #1 80.7; #2 72.4; #3 164 (active)
Tusc3: #1 48.6; #2 61.3; #3 34.5
Cep295nl: #1 78; #2 132 (active); #3 97
Alpl: #1 79.5; #2 82.7; #3 56.1
Hepacam2: #1 122 (active); #2 76.1; #3 69
Lipa: #1 92.1; #2 63; #3 76.5
Tnnt1: #1 95.4; #2 73.5; #3 60.6
Pdgfc: #1 68.8; #2 77.3; #3 52
Prkd2: #1 85.3
Rab11a: #1 110; #2 86.2; #3 59.8
Sacs: #1 95.8; #2 63.2; #3 69.9
Ghsr: #1 27.1; #2 51.6; #3 49.9
Gtf2h1: #1 73.6; #2 73.1; #3 108
Dusp18: #1 38.4; #2 88.5
Magel2: #1 79.7; #2 76.1; #3 81.5
Wif1: #1 78.1; #2 103; #3 89.7
Gpr157: #1 43.1; #2 62.5; #3 69.8
Zfp955a: #1 45; #2 59.6; #3 63.8
Or6d15: #1 103; #2 102; #3 55.6
Zp3r: #1 139 (active); #2 78.4; #3 103
Serhl: #1 50.4; #2 107; #3 51.8
Pank1: #1 86.8; #2 80.6; #3 83
Oprd1: #1 76.7; #2 76.3; #3 71.8
